# In all, about 410,000 compounds went through this assay and about 18,000 (4.4%) were called active. This list was built around the results that the source calls inconclusive (neither active nor inactive); the mix of calls is not that of the screen. Rule as the data show it: active = activity change below about -60%; inconclusive = no clear call, values can overlap the other calls; inactive = above about -39%.
# Experiment: qHTS Assay for inhibitors of the human cytomegalovirus (HCMV)
# Conditions: HFF cells, HCMV-luciferase reporter, 72 h; at 57.5 µM; stronger effect = lower value
# Outline: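 Human foreskin fibroblasts infected with luciferase-reporter HCMV at MOI 1 PFU/cell, compounds at two doses. Luciferase measured 72 h post infection; normalized to buffer-only basal and Salinomycin (10uM) controls.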
# % is scaled to controls: 0 for no effect and ±100 for the full control effect.
row,Compound,"activity change, negative = inhibition"
1,Cc1ccc(Cl)cc1N1CCN(C(=O)c2cnn(-c3ccc(Cl)cc3)c2C2CCNCC2)CC1,active: -101%
2,CC1CCC(C(=O)c2c(O)c3ccccc3oc2=O)CC1 (configuration not stated),active: -100%
3,NC(=O)c1c(NC(=O)Cn2cnc([N+](=O)[O-])n2)sc2c1CCCC2,inactive: -26.3%
4,COc1cc(S(=O)(=O)NCc2ccccc2Cl)ccc1-n1cnnn1,inconclusive: -47.6%
5,COc1ccc(NC(=O)c2cc(S(=O)(=O)Nc3ccc(OC)cc3)cs2)cc1,inconclusive: -41.5%
6,CC(Oc1ccc2c(-c3ccccc3)cc(=O)oc2c1)C(=O)NCCN1CCOCC1 (configuration not stated),inconclusive: -54.2%
7,CCCOC1CCCN(C(=O)c2ccc(OC3CCN(C(=O)COC)CC3)cc2)C1 (configuration not stated),inactive: 17.5%
8,Cc1ccc(CCNC(=O)c2ccc(Cn3c(=O)c4cccn4c4cccnc43)cc2)cc1,active: -60%
9,Cc1nc2sc(C(=O)c3ccccc3)c(N)c2c2c1CCCC2,inconclusive: -42.3%
10,NC(=O)c1ccccc1NC(=S)NC(=O)c1ccc(Br)o1,inactive: 108%
11,Cc1ccc2nc(SCC(=O)Nc3cccc(Cl)c3)nc(=O)n2c1,inconclusive: -48.1%
12,O=C1C2C3C=CC(C3)C2C(=O)N1Cc1ccc(CN2C(=O)C3C4C=CC(C4)C3C2=O)cc1 (configuration not stated),inconclusive: -44%
13,O=C(Nc1ccc2c(c1)OCCO2)NC1(C(F)(F)F)Oc2ccccc2O1,inconclusive: -56.7%
14,O=S(=O)(c1cccc(C(F)(F)F)c1)N1c2ccccc2-n2cccc2C1c1cccnc1 (configuration not stated),inconclusive: -50.7%
15,COc1ccc(N=C(c2ccccc2)c2c(C)[nH]n(-c3ccccc3)c2=O)c(OC)c1,inconclusive: -58.1%
16,O=C(CSc1cccs1)Nc1ccc2ccccc2c1,inactive: 39.5%
17,COC(=O)C1=C(C)NC(=O)/C1=C\N(C)C,inconclusive: -46.2%
18,COc1ccc(C(=O)CC(=O)c2ccccc2)cc1,inactive: 37.8%
19,CCN(/C(N)=N/c1nc(C)cc(C)n1)c1ccccc1,inactive: 1.13%
20,CCC(C(=O)N1CC2(C)CC1CC(C)(C)C2)N1C(=O)c2ccccc2C1=O (configuration not stated),inconclusive: -43.4%
21,O=C(COC(=O)c1cc(-c2cccs2)nn1-c1ccccc1)Nc1ccc(F)c([N+](=O)[O-])c1,inconclusive: -44.8%
22,COc1ccccc1-c1cc(C(F)(F)F)n2ncc(C(=O)N3CCc4ccccc4C3)c2n1,inactive: -13.4%

# Copied from above, 5 compounds:
row,Compound,"activity change, negative = inhibition"
12,O=C1C2C3C=CC(C3)C2C(=O)N1Cc1ccc(CN2C(=O)C3C4C=CC(C4)C3C2=O)cc1 (configuration not stated),inconclusive: -44%
13,O=C(Nc1ccc2c(c1)OCCO2)NC1(C(F)(F)F)Oc2ccccc2O1,inconclusive: -56.7%
14,O=S(=O)(c1cccc(C(F)(F)F)c1)N1c2ccccc2-n2cccc2C1c1cccnc1 (configuration not stated),inconclusive: -50.7%
15,COc1ccc(N=C(c2ccccc2)c2c(C)[nH]n(-c3ccccc3)c2=O)c(OC)c1,inconclusive: -58.1%
16,O=C(CSc1cccs1)Nc1ccc2ccccc2c1,inactive: 39.5%

# Additional entries.

row,Compound,"activity change, negative = inhibition"
1,C=CCn1c(SCC(=O)NCC2CCCO2)nc2scc(-c3ccc(OC)cc3)c2c1=O (configuration not stated),inactive: -22.8%
2,O=C(N/N=C/c1ccoc1)c1ccc(Cl)cc1,active: -74.6%
3,Cc1nn(-c2ccc(N3CCCC3)nn2)c(C)c1CCC(=O)NCc1ccc(F)cc1,inconclusive: -51.9%
4,COc1ccc(Nc2cc(C(=O)NCc3ccccc3)c3ccccc3n2)cc1,inconclusive: -41.1%
5,O=C(O)c1ccc2nc(CO)[nH]c2c1,inactive: 131%
6,Cc1cc(C)cc(C(=O)NC(=S)Nc2ccc3c(c2)OCCO3)c1,inactive: -28.8%
7,Cc1ccc(-c2csc(Cc3nc(-c4ccc5c(c4)CCC(=O)N5)cs3)n2)cc1,inconclusive: -40.8%
8,CC1CCN(C(=O)CSc2nnc(CNC(=O)c3ccc(F)cc3)o2)CC1,inactive: -26.5%
9,N#Cc1ccc(C(=O)Nc2cccc(NC(=O)c3ccco3)c2)c(F)c1,active: -73.9%
10,Cc1nc2ncnn2c(N2CCN(C(c3ccccc3)c3ccccc3)CC2)c1C,active: -69.5%
11,S=C(Nc1ccccc1)Nc1ccccn1,inactive: 30.6%
12,C/C(=N/NC(=O)c1cccs1)c1ccc(NC(=O)COc2ccc(Cl)cc2)cc1,inactive: -14.2%
13,Cc1ccc(-c2c[n+](CC(=O)Nc3nc(-c4ccc(F)cc4)cs3)c3n2CCC3)cc1,inconclusive: -58.7%
14,O=C(Nc1ccc(C(=O)O)cc1)/C(=C\c1ccc(F)cc1)NC(=O)c1ccco1,inconclusive: -58.6%
15,Cc1nc2ccccc2c2oc(C(=O)NCCCN3CCC(C)CC3)cc12,inactive: 52.7%
16,Cc1cccc(OCC(=O)NCC2(N3CCN(C)CC3)CCCCC2)c1,inactive: -31.8%
17,O=C(c1cc(F)ccc1F)C1CCCN(C(=O)c2ccc(F)cc2Cl)C1 (configuration not stated),inconclusive: -50%
18,COc1ccc(F)c(CN2CCC(N3CCC(C(=O)N4CCOCC4)CC3)CC2)c1,inconclusive: -48.8%
19,COc1ccc(CCN2C(=O)NC(NS(=O)(=O)c3ccc(N)cc3)(C(F)(F)F)C2=O)cc1OC (configuration not stated),inconclusive: -43.9%
20,CCOC(=O)c1cnc(SCC(=O)OCC(=O)NC2CCS(=O)(=O)C2)nc1N (configuration not stated),inactive: -3.53%
21,Nc1ccc(N2CCCC2)c(S(=O)(=O)Nc2cccc(C(F)(F)F)c2)c1,active: -68.8%
22,CCCNC(=O)C1CCC(Cn2c(=O)c3sccc3n(CC(=O)N3CCCC(C)C3)c2=O)CC1 (configuration not stated),inconclusive: -48.9%

row,Compound,"activity change, negative = inhibition"
1,O=C(NN=C1CCCCCC1)c1c[nH]c2ccccc12,inactive: -12.3%
2,O=C(c1cc(S(=O)(=O)N2CCN(c3ccccc3)CC2)ccc1Cl)N1CCCCCCC1,inconclusive: -51.3%
3,C/[N+]([O-])=C\c1cccc(OCCN2CCN(c3ncc(C(F)(F)F)cc3Cl)CC2)c1,active: -73.9%
4,COc1ccccc1S(=O)(=O)Cc1ccc(C(=O)NCC2CCCO2)o1 (configuration not stated),inconclusive: -43.7%
5,Cn1c(SCc2ccccc2)nccc1=O,inconclusive: -48.5%
6,O=C(Nc1ccc[n+](CC(=O)c2cccc3ccccc23)c1)c1ccccc1,inconclusive: -53.4%
7,O=C(CSc1nc2c([nH]c3ccccc32)c(=O)n1-c1cccc(C(F)(F)F)c1)N1CCCC1,inactive: -1.69%
8,FC(F)(F)c1cccc(NC(=S)N(CCCN2CCCC2)Cc2cccn2Cc2ccc(Cl)cc2)c1,active: -67.2%
9,CCOc1ccc(NC(=O)C2CCN(S(=O)(=O)c3ccc4c(c3)CC(C)N4C(C)=O)CC2)cc1 (configuration not stated),inconclusive: -51.7%
10,CCOC(=O)C1CCCN(S(=O)(=O)c2ccc(Cl)nc2)C1 (configuration not stated),inactive: -38.5%
11,COc1cc(OC)c(OC)cc1CNCCc1ccc2c(c1)OCO2,inactive: 39%
12,O=C(COC(=O)CC1c2ccccc2CCN1S(=O)(=O)c1ccc(F)cc1)Nc1ccccc1 (configuration not stated),inconclusive: -57.9%
13,Clc1ccc(-c2cc(CN3CCCCC3)no2)cc1Cl,inconclusive: -55.7%
14,COCCOC(=O)C1=C(C)NC(=O)NC1c1ccc(-c2ccc(F)cc2)o1 (configuration not stated),inconclusive: -40.9%
15,CCC(C)NC(=O)C1(C)CCC(=O)N1Cc1ccccc1OC (configuration not stated),inconclusive: -47.8%
16,COC(=O)c1cn(NC(=O)c2cc(OC)c(OC)c(OC)c2)c(=O)c2ccccc12,inconclusive: -56.3%
17,O=C1c2cccc3c(N4CCOCC4)c([N+](=O)[O-])cc(c23)C(=O)N1c1cccc2ccccc12,inactive: -3.08%
18,O=C(Nc1ccc(Oc2ccccc2)cc1)c1csc(COCCO)n1,active: -80.6%
19,CC1(C)CCCN(C(=O)c2ccc3c(c2NCCO)C(=O)c2ccccc2C3=O)C1,inconclusive: -42%
20,CC1CCN(CC(=O)Nc2cc(C(F)(F)F)ccc2Cl)CC1,inconclusive: -57.7%
21,Cc1cccc(CCNC(=O)c2ccc3c(c2)nc2n3CCC(C)C2)c1 (configuration not stated),inconclusive: -57.1%
22,CCOC(=O)c1c(NC(=O)/C=C/C(=O)O)sc(C)c1-c1ccc(C(C)(C)C)cc1,inconclusive: -46.8%

row,Compound,"activity change, negative = inhibition"
1,CCCCn1cnc2c(=S)nc(N)[nH]c21,inconclusive: -40.5%
2,CC(C)c1ccc(NC(=O)Nc2cnccn2)cc1,inactive: 51.2%
3,Cc1cc(C)nc(SCC(=O)OCC(=O)Nc2nc3ccccc3s2)n1,inactive: 81.8%
4,O=C(N/N=C\c1ccc(-c2ccccc2[N+](=O)[O-])o1)C1COc2ccccc2O1 (configuration not stated),inconclusive: -54.3%
5,O=C1NC(=S)SC1=Cc1ccccc1C(=O)O,inconclusive: -51.9%
6,COc1cccc(NC(=O)CN(C)C(=O)CC(NC(=O)c2ccccc2Cl)c2ccccc2)c1 (configuration not stated),inactive: -18.3%
7,Cc1cc2nnc(SCC(=O)Nc3cc(S(=O)(=O)N4CCOCC4)ccc3Cl)n2c2ccccc12,inconclusive: -45.8%
8,CC(C)C1Nc2c(C(=O)O)cccc2C(Nc2ccccc2C(=O)O)C1(C)C (configuration not stated),inconclusive: -49%
9,CC(C)CCNC(=O)CN(C(=O)CCC(=O)Nc1nccs1)c1ccc2c(c1)OCCO2,inconclusive: -52.2%
10,c1ccc2c(NCCCN3CCOCC3)c3ccccc3nc2c1,active: -102%
11,COc1ccc(-n2ccnc2SCC(=O)NCc2ccc(F)cc2)c(OC)c1,inconclusive: -45.9%
12,COc1cccc2cc(C(C)=O)c(=O)oc12,inactive: 37%
13,CC(C)n1nnnc1C1c2ccccc2C(=O)N1CCc1ccc(O)cc1 (configuration not stated),inactive: -20.3%
14,COc1ccc(CCNC2=CC(=O)N(c3ccc(F)cc3)C2=O)cc1,inactive: -5.23%
15,CC(NC(=O)CNC(=S)N(Cc1cccs1)C1CCCC1)c1ccccc1 (configuration not stated),inconclusive: -46.7%
16,CC1=C(C(=O)OCCc2ccccc2)C(c2ccsc2)NC(=O)N1C (configuration not stated),active: -66.5%
17,C=C(CC)C(=O)c1ccc(OCC(=O)O)c(Cl)c1Cl,inconclusive: -45.6%
18,CN1CCN(c2ccc(C(=O)c3ccc(Br)cc3)cc2[N+](=O)[O-])CC1,active: -67.6%
19,O=C(Nc1ccccc1[N+](=O)[O-])c1cccnc1Cl,inactive: -26%
20,O=[N+]([O-])c1ccc(C2=Nc3cc(Cl)ccc3OC2)cc1,inactive: 113%
21,CCn1c(C)c(C)c2cc(C(=O)NCCCN3CCCCC3C)ccc21 (configuration not stated),inconclusive: -42.7%

# From PubChem BioAssay AID1259415 (National Center for Advancing Translational Sciences (NCATS), 2018)
